From the supplement of paper PMC10689618
This is one part of the list. Many values rest on one well or one pass, so single values are uncertain.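 Labelled rat cortical synaptosomes were engulfed by primary human fetal astrocytes. Engulfment equaled a red/green ratio, corrected for calcein live-cell signal and normalized to the plate median. Compounds were toxic when calcein dropped over 30%, and reduced phagocytosis when below 70% of the median above 5 µM.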

How the values were obtained:
Human fetal astrocytes [1] = test: loss of total cells relative to no-compound high-control median (toxicity); higher = more toxic (fewer cells); conditions: 24 h
Human fetal astrocytes [2] = test: synaptosome phagocytosis (pHrodo/calcein intensity ratio) relative to plate median of data wells; higher = more phagocytosis; conditions: 24 h

Structure (SMILES)	loss of total cells (Human fetal astrocytes [1]; 1.39 µM) [%]	loss of total cells (Human fetal astrocytes [1]; 2.78 µM) [%]	loss of total cells (Human fetal astrocytes [1]; 5.56 µM) [%]	loss of total cells (Human fetal astrocytes [1]; 11.11 µM) [%]	loss of total cells (Human fetal astrocytes [1]; 22.22 µM) [%]	synaptosome phagocytosis (Human fetal astrocytes [2]; 1.39 µM) [%]	synaptosome phagocytosis (Human fetal astrocytes [2]; 2.78 µM) [%]	synaptosome phagocytosis (Human fetal astrocytes [2]; 5.56 µM) [%]	synaptosome phagocytosis (Human fetal astrocytes [2]; 11.11 µM) [%]	synaptosome phagocytosis (Human fetal astrocytes [2]; 22.22 µM) [%]
C=C[C@](C)(O)CCC=C(C)C	9.8	2.5	7.3	8.8	6.7	155	120	158	146	134
COC(=O)C(Cc1ccccc1)NC(=O)/C(=C1/OC(=O)C(c2ccccc2)=C1O)c1ccccc1 (stereo not given)	-37.7	-6.1	3.7	23	2.2	114	106	138	105	123
COc1ccccc1OCC(O)COC(N)=O (stereo not given)	-55.6	-15.5	9.9	-14.8	13.6	92.9	93.5	94.2	128	123
Nc1ccc(S(=O)(=O)c2ccc(N)cc2)cc1	6.2	-22.7	0	2.6	-2.1	89.6	99.2	93.6	95.1	92.4
COc1cc(C(=O)O)cc(OC)c1O	2.5	4	-10.1	-24.7	5.3	101	107	71.3	60.9	94.7
O=C(O)c1cccnc1	11.6	-15.5	5.1	8.6	-2.3	97.7	112	93.5	93.5	87.3
CC(=O)Oc1c(C)c(C)c2c(c1C)CCC(C)(CCCC(C)CCCC(C)CCCC(C)C)O2 (stereo not drawn) [alpha-TOCHOPHERYL ACETATE]	-14.9	0.3	-8.7	-17.2	11.9	83.2	104	102	127	110
C[C@@H]1O[C@@H](O[C@H]2[C@H](O[C@H]3CC[C@@]4(C)[C@@H](CC[C@]5(C)[C@@H]4CC=C4[C@@H]6CC(C)(C)CC[C@]6(C(=O)O[C@@H]6O[C@H](CO[C@@H]7O[C@H](CO)[C@@H](O[C@@H]8O[C@@H](C)[C@H](O)[C@@H](O)[C@H]8O)[C@H](O)[C@H]7O)[C@@H](O)[C@H](O)[C@H]6O)CC[C@]45C)[C@]3(C)CO)OC[C@H](O)[C@@H]2O)[C@H](O)[C@H](O)[C@H]1O	-19.7	-6.1	-6.6	5.4	-0.7	122	134	114	95.4	104
CC(=O)N[C@@H](Cc1c[nH]c2ccccc12)C(=O)O	9	11.2	15.2	-1.3	19.7	115	94.3	148	100	104
CC(C(=O)O)c1cccc(Oc2ccccc2)c1 (stereo not given)	-14.9	-10.1	12.9	3.9	13	102	96	100	93.1	99.8
C[C@]12CCC3c4ccc(OS(=O)(=O)O)cc4CCC3C1CC[C@H]2O (stereo not given in full)	19.1	18.4	15.9	-8.8	2.3	93.6	130	125	120	108
COc1cccc(OC)c1C(=O)N[C@@H]1C(=O)N2[C@@H]1SC(C)(C)[C@@H]2C(=O)O	8	-20	-13.9	-0.3	55	71.8	118	92.4	117	122
NC(=O)c1ncn([C@@H]2O[C@H](CO)[C@@H](O)[C@H]2O)c1N	-7.4	1.1	-1.5	11.5	23.7	130	113	84.3	114	113
CC1=C(C/C=C(\C)CCC[C@H](C)CCC[C@H](C)CCCC(C)C)C(=O)c2ccccc2C1=O	-12.7	6	35.9	41.9	-13.7	66.3	100	149	118	86.3
CC(=O)NO	-6.6	-6.4	5.1	-7	9.1	64.8	83.1	97.9	79.5	117
CN1CCCN=C1/C=C/c1cccc(O)c1	-6.2	-3.3	27.5	1.9	13	109	119	123	90.1	124
Cc1cc(=O)[nH]c(=S)[nH]1	34.7	11.2	18.1	8.4	-10.6	79.4	110	145	128	110
O=C(CCCN1CCC(O)(c2ccc(Br)cc2)CC1)c1ccc(F)cc1	-12	-1.3	32.8	11.6	9.3	78	71.9	115	84.1	81
CC(C)[N+]1(C)[C@@H]2CC[C@H]1C[C@@H](OC(=O)C(CO)c1ccccc1)C2 (stereo not given in full)	14.5	-17.3	-1.4	2.6	-7.6	102	105	97.4	86.8	90

Only loss of total cells (Human fetal astrocytes [1]; 22.22 µM) [%], loss of total cells (Human fetal astrocytes [1]; 11.11 µM) [%] and synaptosome phagocytosis (Human fetal astrocytes [2]; 11.11 µM) [%] (2 entries from above):
Structure (SMILES) | loss of total cells (Human fetal astrocytes [1]; 22.22 µM) [%] | loss of total cells (Human fetal astrocytes [1]; 11.11 µM) [%] | synaptosome phagocytosis (Human fetal astrocytes [2]; 11.11 µM) [%]
C=C[C@](C)(O)CCC=C(C)C | 6.7 | 8.8 | 146
COC(=O)C(Cc1ccccc1)NC(=O)/C(=C1/OC(=O)C(c2ccccc2)=C1O)c1ccccc1 (stereo not given) | 2.2 | 23 | 105
